# Some of the results follow. Many values rest on one well or one pass, so single values are uncertain.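 The apoptosis fraction was the count of cleaved-PARP antibody-stained nuclei relative to all DNA-stained nuclei, imaged in 1,536-well plates. Screening doses were set so most cells survived, and baseline and induced cleaved-PARP levels vary greatly across cell lines.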
# What was measured:
# Assay in all cases: cleaved PARP positive nuclei fraction relative to DMSO control; melanoma cells; higher = more apoptosis
# Conditions in all cases: library dose: low library concentration; 72 h
# 501Mel = test system: 501Mel
# A101D = test system: A101D
# A2058 = test system: A2058
# C32 = test system: C32
# CBRC008 = test system: CBRC008 (line from a melanoma biopsy)
# CBRC014 = test system: CBRC014 (line from a melanoma biopsy)
# CBRC016 = test system: CBRC016 (line from a melanoma biopsy)
# CBRC017 = test system: CBRC017 (line from a melanoma biopsy)
# COLO792 = test system: COLO792
# COLO800 = test system: COLO800
# COLO829 = test system: COLO829
# G361 = test system: G361
# IPC-298 = test system: IPC-298
# IST-MEL1 = test system: IST-MEL1
# LB2518-MEL = test system: LB2518-MEL
# LOXIMVI = test system: LOXIMVI
Compound,cleaved PARP positive nuclei fraction (501Mel) [%],cleaved PARP positive nuclei fraction (A101D) [%],cleaved PARP positive nuclei fraction (A2058) [%],cleaved PARP positive nuclei fraction (C32) [%],cleaved PARP positive nuclei fraction (CBRC008) [%],cleaved PARP positive nuclei fraction (CBRC014) [%],cleaved PARP positive nuclei fraction (CBRC016) [%],cleaved PARP positive nuclei fraction (CBRC017) [%],cleaved PARP positive nuclei fraction (COLO792) [%],cleaved PARP positive nuclei fraction (COLO800) [%],cleaved PARP positive nuclei fraction (COLO829) [%],cleaved PARP positive nuclei fraction (G361) [%],cleaved PARP positive nuclei fraction (IPC-298) [%],cleaved PARP positive nuclei fraction (IST-MEL1) [%],cleaved PARP positive nuclei fraction (LB2518-MEL) [%],cleaved PARP positive nuclei fraction (LOXIMVI) [%]
"Cn1cnc2c(F)c(Nc3ccc(Br)cc3Cl)c(C(=O)NOCCO)cc21 [selumetinib] + O=C1NC(=O)/C(=C/c2ccc(-c3ccc(F)cc3O)o2)S1 [AS252424] (first compound 0.015 µM, partner dose 1 µM)",314,19.5,162,91.2,98.8,118,120,179,43,84.5,22.1,231,166,70.9,329,108
"C[C@@H](N)c1ccc(C(=O)Nc2ccnc3[nH]ccc23)cc1 + N#Cc1c(O)c2c(-c3ccc(-c4ccccc4O)cc3)csc2[nH]c1=O [A769662] (first compound 0.4 µM, partner dose 2 µM)",53.4,22.6,62,69,49,216,193,98,123,129,143,116,170,157,84.5,160
"C[C@]1(O)C[C@@H](c2nc(-c3ccc4ccc(-c5ccccc5)nc4c3)c3c(N)nccn32)C1 + CCCCCCCCCCCC1=C(O)C(=O)C=C(O)C1=O [Embelin] (first compound 0.4 µM, partner dose 1.2 µM)",70.8,2780,66.2,56.9,79.6,109,64.7,234,143,134,133,100,104,108,278,165
"CS(=O)(=O)c1ccc(C(=O)Nc2ccc(Cl)c(-c3ccccn3)c2)c(Cl)c1 [vismodegib] + Cc1cc([N+](=O)[O-])ccc1NS(=O)(=O)c1cc(Cl)ccc1Cl [FH535] (first compound 1 µM, partner dose 1 µM)",36.7,19.6,88.5,182,342,166,435,134,105,171,79.2,110,51.2,156,71.1,106
"NC(=O)c1ccc(N(C(N)=O)c2c(F)cccc2F)nc1-c1ccc(F)cc1F + CCCCCCCCCCCC1=C(O)C(=O)C=C(O)C1=O [Embelin] (first compound 0.4 µM, partner dose 1.2 µM)",59,18,243,154,143,89.2,217,104,144,19.3,69.2,49.1,68.4,207,24.2,155
"COc1ccc(C2=N[C@@H](c3ccc(Cl)cc3)[C@@H](c3ccc(Cl)cc3)N2C(=O)N2CCNC(=O)C2)c(OC(C)C)c1 [Nutlin-3] + COc1cc2ncnc(Nc3ccc(Oc4ccccc4)cc3)c2cc1OC [SrcI1] (first compound 0.1 µM, partner dose 2 µM)",82.1,22.2,42.3,29.6,122,117,62.2,114,139,94,30.8,66.5,65.6,59.6,132,83.7
"Cn1sc(=O)n(Cc2ccccc2)c1=O + CC(C)CCN1c2nc(Nc3cc(F)c(O)c(F)c3)ncc2N(C)C(=O)C1C [BID1870] (first compound 0.4 µM, partner dose 0.2 µM)",37.1,23.9,136,129,81.3,95.5,66.4,73.6,52.2,55.1,105,173,93.9,115,35,114
"C[C@]1(O)C[C@@H](c2nc(-c3ccc4ccc(-c5ccccc5)nc4c3)c3c(N)nccn32)C1 + O=S(=O)(c1ccccc1)N(CC(F)(F)F)c1ccc(C(O)(C(F)(F)F)C(F)(F)F)cc1 [T0901317] (first compound 0.4 µM, partner dose 1.4 µM)",156,13.7,99.6,93.1,34.6,97.4,61.4,81.4,85.9,239,126,61.9,54.3,96.7,74.5,234
"COc1ccc(C2=N[C@@H](c3ccc(Cl)cc3)[C@@H](c3ccc(Cl)cc3)N2C(=O)N2CCNC(=O)C2)c(OC(C)C)c1 [Nutlin-3] + O=C1NC(=O)/C(=C/c2ccc(-c3ccc(F)cc3O)o2)S1 [AS252424] (first compound 0.1 µM, partner dose 1 µM)",79.4,17.7,61.6,74,261,78.3,71.9,90.6,111,80.2,165,112,49.2,144,84.7,201
"NC1(c2ccc(-c3nc4ccn5c(=O)[nH]nc5c4cc3-c3ccccc3)cc2)CCC1 + CCN(CC)CCCCNc1ncc2cc(-c3cc(OC)cc(OC)c3)c(NC(=O)NC(C)(C)C)nc2n1 [PD173074] (first compound 0.4 µM, partner dose 0.1 µM)",290,16.6,238,99.3,39.2,71.3,72.3,66.6,140,118,129,115,100,97.4,52.5,211
"C[C@]1(O)C[C@@H](c2nc(-c3ccc4ccc(-c5ccccc5)nc4c3)c3c(N)nccn32)C1 + N#Cc1c(O)c2c(-c3ccc(-c4ccccc4O)cc3)csc2[nH]c1=O [A769662] (first compound 0.4 µM, partner dose 2 µM)",79.1,69.7,69,86.9,463,81.9,39,258,172,258,265,141,97.2,151,77.4,39.1
"CCCCCCCCc1ccc(CCC(N)(CO)CO)cc1 [fingolimod] + CCCCCCCCCCCC1=C(O)C(=O)C=C(O)C1=O [Embelin] (first compound 2 µM, partner dose 1.2 µM)",65.8,28.7,63,80.6,33.1,90.8,87.4,94.7,114,123,71.5,107,90.2,113,68.2,116
"CC1(C)CCC(c2ccc(Cl)cc2)=C(CN2CCN(c3ccc(C(=O)NS(=O)(=O)c4ccc(N[C@H](CCN5CCOCC5)CSc5ccccc5)c(S(=O)(=O)C(F)(F)F)c4)cc3)CC2)C1 + CCN(CC)CCCCNc1ncc2cc(-c3cc(OC)cc(OC)c3)c(NC(=O)NC(C)(C)C)nc2n1 [PD173074] (first compound 0.4 µM, partner dose 0.1 µM)",68.4,43.1,74,250,1070,629,197,402,230,66.4,93.3,160,189,144,163,146
"CS(=O)(=O)c1ccc(C(=O)Nc2ccc(Cl)c(-c3ccccn3)c2)c(Cl)c1 [vismodegib] + O=c1cc(-c2cccc3c2Sc2ccccc2S3)oc(N2CCOCC2)c1 [KU55933] (first compound 1 µM, partner dose 1 µM)",66.1,28.5,35.7,38.6,65.9,98.8,37.9,86.7,98.6,114,35.9,93.4,47.3,37.9,67.3,61.4
"CS(=O)(=O)c1ccc(C(=O)Nc2ccc(Cl)c(-c3ccccn3)c2)c(Cl)c1 [vismodegib] + Oc1nc(-c2ccc(C(F)(F)F)cc2)nc2c1CSCC2 [XAV939] (first compound 1 µM, partner dose 2 µM)",63.6,16.6,213,83.1,158,89.3,59.3,71.8,112,50.2,51.9,142,48.3,61,73.6,49.5
"CN(c1ncccc1CNc1nc(Nc2ccc3c(c2)CC(=O)N3)ncc1C(F)(F)F)S(C)(=O)=O + O=C1NC(=O)/C(=C/c2ccc(-c3ccc(F)cc3O)o2)S1 [AS252424] (first compound 0.08 µM, partner dose 1 µM)",157,46.4,117,86.5,150,209,83.4,105,152,50.2,174,178,96.7,101,77.7,139
"C[C@@H](N)c1ccc(C(=O)Nc2ccnc3[nH]ccc23)cc1 + O=C(Nc1ccccc1)c1cc([N+](=O)[O-])ccc1Cl [GW9662] (first compound 0.4 µM, partner dose 2 µM)",76.2,35,128,134,76.8,124,47.9,65.6,134,43,110,343,40.7,95.4,53.2,78.6
"Cn1sc(=O)n(Cc2ccccc2)c1=O + O=C1NC(=O)/C(=C/c2ccc(-c3ccc(F)cc3O)o2)S1 [AS252424] (first compound 0.4 µM, partner dose 1 µM)",110,14.9,44.2,68.1,153,165,49.1,108,146,42.8,88.8,193,358,58.8,64.6,50.3

# Reference: the supplement of paper PMC4604168 (melanoma cell lines)
